Data on two molecules can be found in PMC4822136.

Amino acid sequences for entries named in this document (tags omitted).
UniProt P05412: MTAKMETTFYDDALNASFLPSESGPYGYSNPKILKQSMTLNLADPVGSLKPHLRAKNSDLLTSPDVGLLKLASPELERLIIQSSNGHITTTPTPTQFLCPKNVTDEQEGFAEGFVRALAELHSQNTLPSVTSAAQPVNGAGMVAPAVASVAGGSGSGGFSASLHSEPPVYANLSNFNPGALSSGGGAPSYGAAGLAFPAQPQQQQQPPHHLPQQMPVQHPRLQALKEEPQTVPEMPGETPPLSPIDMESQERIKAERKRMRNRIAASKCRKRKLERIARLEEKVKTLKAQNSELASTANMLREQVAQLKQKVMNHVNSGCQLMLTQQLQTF

Results are given in words; binding and its absence hold for the method and conditions named. In cells and extracts the contact can be indirect. Some entries that bind do so weakly or less than the wild type. Tags and fused reporters may be left off the sequences shown.

The target of test [1] is T1, Flag-tagged TRIM69 (human) (UniProt Q86WT6).
T1 sequence: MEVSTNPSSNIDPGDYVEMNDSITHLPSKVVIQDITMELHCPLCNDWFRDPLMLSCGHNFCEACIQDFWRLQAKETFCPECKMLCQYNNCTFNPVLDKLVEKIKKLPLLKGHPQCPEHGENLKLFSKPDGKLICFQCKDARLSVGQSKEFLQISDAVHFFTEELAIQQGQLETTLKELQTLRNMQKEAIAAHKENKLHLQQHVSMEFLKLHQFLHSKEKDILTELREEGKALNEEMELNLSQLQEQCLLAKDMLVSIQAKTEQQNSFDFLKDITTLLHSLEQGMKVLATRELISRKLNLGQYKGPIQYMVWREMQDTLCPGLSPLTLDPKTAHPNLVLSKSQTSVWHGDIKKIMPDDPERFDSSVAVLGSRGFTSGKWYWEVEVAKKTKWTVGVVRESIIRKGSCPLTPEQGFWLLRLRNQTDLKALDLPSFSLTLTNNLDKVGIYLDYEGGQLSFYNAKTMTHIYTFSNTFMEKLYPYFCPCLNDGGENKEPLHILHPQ
In words: co-IP; HEK293T cells co-transfected with Flag-TRIM69 and HA-c-Jun; lysed in NETN buffer 48 h after transfection; complexes isolated with anti-Flag beads (M2) or, in the reverse experiment, anti-HA beads; immunoblot. For orientation: Immunoblotting shows a protein as a band on a membrane.

A further test concerns the target HA-tagged c-Jun (UniProt P05412). Described as above.

Turning to “HA-tagged c-Jun (from UniProt P05412 1-331)”, the binding result in test [1] is “binds”.

B1: Flag-tagged TRIM69 (protein, UniProt Q86WT6 1-500)
chain: T1 sequence
B1: in the test with HA-tagged c-Jun, the binding entry is “binds”.
